Measured values published in US20250018029A1, “METHODS TO ALTER THE TUMOR MICROENVIRONMENT FOR EFFECTIVE CANCER IMMUNOTHERAPY” (PDS BIOTECHNOLOGY CORPORATION, priority 2016, published 2025).
Some results were stated once for a whole list of compounds, not compound by compound. For at least one compound, name, drawing or mass did not settle the structure.

Key:
[1] = tested on: Tregs / HPV16 E7-specific CD8+ T cells in tumor; test: Ratio of Tregs to HPV16 E7-specific CD8+ T cells in the tumor microenvironment; format: in vivo, C57 mice; details: within TC-1 tumor microenvironment
HPV-positive TC-1 tumors = test: Regression of established TC-1 tumors, vaccination Days 12 and 19; format: in vivo, C57 mice; details: vaccinated Days 12 and 19, Day 26
Experimental: Tumors were implanted on Day 0 and the mice vaccinated on Days 12 and 19. Tumor volumes were measured using calipers. The naïve mice group are tumor bearing mice that remained untreated. […] P<0.01.
C57 mice were divided into the following groups of 8 mice per group: • Group 1: R-DOTAP+KF18 (SEQ ID NO: 2) • Group 2: GM-CSF+KF18 (SEQ ID NO: 2) • Group 3: R-DOTAP • Group 4: GM-CSF • Group 5: KF18 (SEQ ID NO: 2) • Group 6: Naïve mice (tumor bearing and untreated). • 1×10E^5 TC-1 tumor cells were injected into the flank of the mice on day 0. The various formulations were administered on Days 12 and 19 after tumor implantation.
The third group of animals who were treated with either R-DOTAP alone or GM-CSF alone without antigen, or left untreated (Treg/CD8+ ratio >30) had tumor volumes of 300-700 mm^3.

CCCCCCCC/C=C\CCCCCCCC(=O)OCC(C[N+](C)(C)C)OC(=O)CCCCCCC/C=C\CCCCCCCC (centres unmarked) [R-DOTAP, 1,2-dioleoyl-3-trimethylammonium propane]
Treg/CD8+ T-cell ratio [1]: > 30
tumor volume (HPV-positive TC-1 tumors): 300-700 mm^3
